Test results published in US4001199 (dated 1977).
Square brackets hold non-standard residues; d marks the D form. Ends that are not written are not given here. * marks the point of attachment. Arg(NO2) = N=C(NCCC[C@H](N)C(=O)O)N[N+](=O)[O-]; Cbz = O=C(OCc1ccccc1)*; OBn = c1ccc(CO*)cc1; GABA = NCCCC(=O)O; OtBu = CC(C)(C)O*; βAla = NCCC(=O)O; Sar = CNCC(=O)O

Experiment: peptide synthesis
Conditions: acetate

Substance | step yield (coupling step) | step yield (late stage modification step)
Z-ε-Acap-Arg(NO2)-Gly-Phe-Phe-Tyr-NH2 | 57% | –
{Cbz-βAla}-[Arg(NO2)]GFFY-NH2 | 62% | –
Z-ε-Acap-Arg(NO2)-Gly-Phe-Phe-NH2 | 55% | –
di-Z-α,γ-Dab-Arg(NO2)-Gly-Phe-Phe-Tyr-NH2 | 51% | –
Z-Thr-Pro-Lys(BOC)-Ala-O^t Bu | 93% | –
Arg-Pro-Phe-Phe-Tyr-NH2 | – | 52.3%
[dA]RGFF-NH2 | – | 73%
[βAla]RGFFY-NH2 | – | 75%
GRPFFY-NH2 | – | 63.6%
Lys-Arg-Gly-Phe-Phe-NH2 | – | 52%
[βAla]RPFFY-NH2 | – | 65.7%
[βAla]R[Sar]FFY-NH2 | – | 70.4%
Cbz-[Sar]FFY-NH2 | 83.8% | –
Cbz-[Arg(NO2)]PFFY-NH2 | 95.6% | –
{Cbz-βAla}-[Arg(NO2)]GFFYTP-OtBu | 67.4% | –
Cbz-[Arg(NO2)][Arg(NO2)]GFF-NH2 | 89% | –
diZ-Lys-Arg(NO2)-Gly-Phe-Phe-NH2 | 77% | –
[βAla]R[βAla]FFY-NH2 | – | 69.1%
{Cbz-GABA}-[Arg(NO2)]GFFY-NH2 | 58% | –
{Cbz-βAla}-[Arg(NO2)]GFF-NH2 | 83.3% | –
KRGFFY-NH2 | – | 50%

Substance | step yield (coupling step) | step yield (late stage modification step)
β -Ala-Arg-Gly-Phe-Phe-NH2 | – | 66%
ε-Acap-Arg-Gly-Phe-Phe-Tyr-NH2 | – | 62%
Z-δ-Aval-Arg(NO2)-Gly-Phe-Phe-NH2 | 70% | –
{Cbz-βAla}-[Arg(NO2)]GFFYL-OBn | 87.9% | –
α,γ-Dab-Arg-Gly-Phe-Phe-Tyr-NH2 | – | 43%
{Cbz-βAla}-[Arg(NO2)][Sar]FFY-NH2 | 76.5% | –
Arg-Arg-Gly-Phe-Phe-NH2 | – | 45%
ε-Acap-Arg-Gly-Phe-Phe-NH2 | – | 51%
LRGFFY-NH2 | – | 55.5%
α,γ-Dab-Arg-Gly-Phe-Phe-NH2 | – | 46%
Z-Gly-Arg-Pro-Phe-Phe-Tyr-NH2 p-toluenesulfonate | 89.5% | –
Cbz-L[Arg(NO2)]PFFY-NH2 | 86.5% | –
Cbz-L[Arg(NO2)]GFFY-NH2 | 70.9% | –
Z-β-Ala-Phe-Phe-Tyr-NH2 | 88.0% | –
{Cbz-βAla}-[Arg(NO2)]GFFY-OH | – | 98%
Cbz-[dA][Arg(NO2)]GFF-NH2 | 92% | –
{Cbz-βAla}-[Arg(NO2)]GFFY-OEt | 82% | –
Cbz-[Arg(NO2)]GFF-NH2 | 72.7% | –
Z-Arg(NO2)-Gly-Phe-Phe-Tyr-Thr-Pro-Lys(BOC)-Ala-O^t Bu | 88% | –
Cbz-G[Arg(NO2)]GFF-NH2 | 77% | –
Cbz-[Arg(NO2)][Sar]FFY-NH2 | 77.2% | –

Substance | step yield (coupling step) | step yield (late stage modification step)
Arg-Gly-Phe-Phe-Tyr-NH2 | – | 72.5%
Cbz-F[Arg(NO2)]GFF-NH2 | 92% | –
[GABA]RGFFY-NH2 | – | 52%
[βAla]RFFFY-NH2 | – | 64%
δ-Aval-Arg-Gly-Phe-Phe-NH2 | – | 61%
Z-Phe-Phe-Tyr-Thr-Pro-Lys(BOC)-Ala-O^t Bu | 100% | –
[GABA]RGFF-NH2 | – | 63%
Gly-Arg-Gly-Phe-Phe-NH2 | – | 65%
LRPFFY-NH2 | – | 63.6%
{Cbz-βAla}-[Arg(NO2)][βAla]FFY-NH2 | 73% | –
Di-Z-(α,γ-Dab-Arg(NO2 )-Gly-Phe-Phe-NH2 | 78% | –
Cbz-[Arg(NO2)]GFFY-NH2 | 91.8% | –
[βAla]RGFFYL-OH | – | 64.2%
Cbz-[Arg(NO2)][βAla]FFY-NH2 | 74.9% | –
Z-ε-Acap-Arg-Pro-Phe-Phe-Tyr-NH2 | 79.1% | –
{Cbz-GABA}-[Arg(NO2)]GFF-NH2 | 65% | –
Z-Phe-Phe-Tyr-Thr-Pro-O^t Bu | 89.8% | –
{Cbz-βAla}-[Arg(NO2)]PFFY-NH2 | 80.9% | –
di-Z-Lys-Arg(NO2)-Gly-Phe-Phe-Tyr-NH2 | 58% | –
